PubChem BioAssay AID1259315 | Drosophila RNAi Screening Center – 2017

Test: 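Fly genes changing cellular ATP after a day in high zinc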 (primary screen)
Cells: Drosophila S2R+ cells
Knock-down reagent: long dsRNA against Drosophila genes
Timing: 5 days (4 days knock-down, then 1 day with zinc)
Conditions: zinc chloride added to 15 mM final for 1 day
Detection: 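Luminescent measure of total cellular ATP as a survival proxy, read after 4 days of knock-down plus 1 day in 15 mM zinc chloride; z-score averaged across two replicate plates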
Reading the numbers: mean ATP z-score: higher = more ATP, more cells surviving zinc
Active means: 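a reagent is active if its z-score lies beyond 1.5 in either direction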
This is a random part of 418 reagents. In the full data, 17 (4.1%) are marked active. 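z-scores average two replicate plates; all hits raised ATP and none lowered it.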 Reagent sequences are not shown. Not given: the amount of reagent.

mean ATP z-score, by gene and reagent
Pex3 (GeneID 39652): DRSC10731 -0.321 inactive; DRSC40003 -0.392 inactive
CG4586 (GeneID 31641): DRSC18373 -0.238 inactive; DRSC34798 0.909 inactive
Pex11ab (GeneID 36758): DRSC07145 -0.21 inactive
rb (GeneID 31381): DRSC18826 -0.114 inactive; DRSC27940 -0.112 inactive
Mcad (GeneID 38864): DRSC09871 -0.2 inactive; DRSC25980 -0.258 inactive
CG14767 (GeneID 50250): DRSC06500 0.13 inactive; DRSC28418 -0.157 inactive
Sod3 (GeneID 36232): DRSC07324 -0.0786 inactive; DRSC26222 -0.423 inactive
VhaPPA1-1 (GeneID 45247): DRSC24144 0.383 inactive; DRSC32232 -0.00483 inactive; DRSC32233 0.118 inactive
Npc2f (GeneID 42864): DRSC15980 0.0968 inactive
gb (GeneID 43265): DRSC15961 -0.127 inactive; DRSC24834 0.173 inactive
Hel25E (GeneID 33781): DRSC28348 9.59 active; DRSC30679 7.47 active; DRSC30680 9.93 active
Tsp42Ea (GeneID 59178): DRSC04982 -0.0318 inactive; DRSC06792 0.0369 inactive
pic (GeneID 41611): DRSC16639 1.88 active; DRSC31603 1.73 active; DRSC31604 1.4 inactive
Sod2 (GeneID 36878): DRSC07554 0.0225 inactive; DRSC27050 -0.22 inactive
JhI-21 (GeneID 34624): DRSC02161 -0.205 inactive; DRSC29181 -0.319 inactive
cm (GeneID 31647): DRSC41297 0.0655 inactive
Abcd3 (GeneID 32992): DRSC29341 -0.322 inactive; DRSC41060 -0.364 inactive; DRSC41168 -0.257 inactive
VhaM9.7-a (GeneID 38521): DRSC08289 0.0495 inactive; DRSC28340 -0.268 inactive
Mvl (GeneID 42490): DRSC16752 -0.138 inactive; DRSC39671 0.691 inactive; DRSC40923 -0.0927 inactive
LManIII (GeneID 34203): DRSC03221 1.2 inactive; DRSC29001 -0.336 inactive; DRSC35602 -0.152 inactive
Agps (GeneID 36669): DRSC05984 -0.13 inactive; DRSC26742 -0.356 inactive; DRSC41165 -0.175 inactive
VhaAC39-1 (GeneID 31342): DRSC27608 0.409 inactive; DRSC31237 -0.124 inactive; DRSC31238 -0.141 inactive
CG12355 (GeneID 2768954): DRSC09381 -0.349 inactive; DRSC09883 -0.0753 inactive
CG9577 (GeneID 33016): DRSC20693 -0.412 inactive; DRSC27691 -0.221 inactive
Hmgcl (GeneID 33978): DRSC02051 -0.0577 inactive
CG6508 (GeneID 34493): DRSC02963 0.0309 inactive
AP-1sigma (GeneID 42835): DRSC15899 -0.357 inactive; DRSC40317 -0.169 inactive
Lamp1 (GeneID 35411): DRSC03727 -0.312 inactive; DRSC31130 -0.163 inactive; DRSC31131 -0.282 inactive
Xpac (GeneID 31357): DRSC18730 -0.238 inactive; DRSC25963 -0.337 inactive; DRSC41029 -0.222 inactive
Vha68-3 (GeneID 34695): DRSC02809 -0.22 inactive; DRSC25742 -0.194 inactive
CtsL1 (GeneID 36546): DRSC05462 -0.494 inactive; DRSC07363 -0.358 inactive; DRSC29071 -0.42 inactive
ClC-a (GeneID 41428): DRSC14947 1.01 inactive; DRSC14948 0.51 inactive; DRSC16142 0.968 inactive
mnd (GeneID 39625): DRSC11370 -0.234 inactive; DRSC39608 -0.409 inactive
Pex10 (GeneID 38182): DRSC22021 -0.205 inactive; DRSC38320 -0.403 inactive
Vha36-1 (GeneID 44702): DRSC07098 3.35 active; DRSC25624 -0.0355 inactive
Vps28 (GeneID 47408): DRSC06168 0.476 inactive; DRSC31695 0.177 inactive; DRSC31696 -0.199 inactive
Gbp2 (GeneID 36937): DRSC06069 -0.0918 inactive
cathD (GeneID 45268): DRSC07588 -0.063 inactive
Pex5 (GeneID 31141): DRSC18552 -0.173 inactive; DRSC26136 -0.384 inactive; DRSC34058 0.202 inactive
CG5065 (GeneID 36860): DRSC06912 -0.204 inactive
Hgsnat (GeneID 31423): DRSC18405 -0.348 inactive; DRSC24716 -0.235 inactive; DRSC37969 -0.301 inactive
Vha36-3 (GeneID 31235): DRSC18615 0.248 inactive; DRSC28636 -0.111 inactive
mv (GeneID 38259): DRSC08208 -0.14 inactive; DRSC28733 0.668 inactive; DRSC33279 -0.149 inactive
CG17597 (GeneID 35140): DRSC02630 -0.223 inactive; DRSC24788 -0.303 inactive
Vha36-2 (GeneID 36328): DRSC06294 -0.0158 inactive; DRSC29238 0.0459 inactive
Hexo2 (GeneID 31808): DRSC18671 -0.287 inactive
g (GeneID 44819): DRSC20335 -0.162 inactive; DRSC26118 -0.239 inactive
LManI (GeneID 34436): DRSC24754 -0.182 inactive; DRSC39016 -0.226 inactive; DRSC41065 -0.246 inactive
Vps24 (GeneID 40542): DRSC12332 -0.162 inactive; DRSC29224 -0.316 inactive; DRSC34417 -0.0163 inactive
Mfe2 (GeneID 32582): DRSC19869 -0.273 inactive
Amacr (GeneID 35337): DRSC03198 -0.019 inactive
CROT (GeneID 43332): DRSC27733 -0.376 inactive; DRSC32670 -0.309 inactive; DRSC32671 0.0506 inactive

Part of the list above, reformatted.
Pex11ab (GeneID 36758) [DRSC07145]
- mean ATP z-score: -0.21
- Call: inactive

rb (GeneID 31381) [DRSC18826]
- mean ATP z-score: -0.114
- Call: inactive

rb (GeneID 31381) [DRSC27940]
- mean ATP z-score: -0.112
- Call: inactive

Mcad (GeneID 38864) [DRSC09871]
- mean ATP z-score: -0.2
- Call: inactive

Mcad (GeneID 38864) [DRSC25980]
- mean ATP z-score: -0.258
- Call: inactive

CG14767 (GeneID 50250) [DRSC06500]
- mean ATP z-score: 0.13
- Call: inactive

CG14767 (GeneID 50250) [DRSC28418]
- mean ATP z-score: -0.157
- Call: inactive

Sod3 (GeneID 36232) [DRSC07324]
- mean ATP z-score: -0.0786
- Call: inactive

Sod3 (GeneID 36232) [DRSC26222]
- mean ATP z-score: -0.423
- Call: inactive

VhaPPA1-1 (GeneID 45247) [DRSC24144]
- mean ATP z-score: 0.383
- Call: inactive

VhaPPA1-1 (GeneID 45247) [DRSC32232]
- mean ATP z-score: -0.00483
- Call: inactive

VhaPPA1-1 (GeneID 45247) [DRSC32233]
- mean ATP z-score: 0.118
- Call: inactive
